Test results taken from PubChem BioAssay AID445 (National Center for Advancing Translational Sciences (NCATS), 2006).
This is one part of the list. Shown are side measurements of this screen, not its main read-out; they come without a call. The list favours compounds with an active or inconclusive main result. The note in brackets gives the kind of curve behind each potency; many fits are weak.

test: IkB Signaling; settings: ABC-DLBCL IkBa-CBG/CBR dual luciferase ratio (green luciferase fused to IkBa over red control in OCI-Ly3 lymphoma cells), 4 h; measured here: control luc red channel unless noted
Summary of the method: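 Luminescence ratio of IκBα-fused green versus native red beetle luciferase in OCI-Ly3 cells, 4 h post-doxycycline with compound; red signal alone, scaled from basal (0%) to zero light (-100%), flagged nonspecific or cytotoxic effects.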

Row | SMILES | AC50
1 | CC(C)c1ccc(OCC(O)CN2CCN(c3ccc(F)cc3)CC2)cc1 (stereo unspecified) | 10 µM [falling, partial curve]
2 | Cc1ccccc1NC(=O)c1ccc(Cl)c(S(=O)(=O)N2CCCCCC2)c1 | 12.6 µM [falling, partial curve]
3 | CCSc1nnc(NC(=O)c2ccc(C)o2)s1 | 10 µM [falling, partial curve]
4 | CCc1ccccc1NC(=O)c1cc(-c2ccc3c(c2)OCO3)on1 | 6.31 µM [falling, partial curve]
5 | Cc1ccc(C)c(-c2nc3ccc(N)cc3[nH]2)c1 | 12.6 µM [falling, partial curve]
6 | O=c1c(-c2ccc(O)cc2)coc2cc(O)ccc12 | 39.8 nM [falling, full curve] [measured here: IkB-luc green channel]
7 | Cc1ccc(O)c(C2=Nc3ccccc3N=C(c3cccc(F)c3)C2)c1 | 12.6 µM [falling, partial curve]
8 | O=C(Nc1ccc(C(=O)N2CCN(c3ccc(Cl)cc3)CC2)cc1)c1nsc2ccccc12 | 0.0316 µM [falling, full curve]
9 | CCOC(=O)NCCc1c(C)nc2c(c(C)nn2C(C)(C)C)c1C | 39.8 µM [falling, single point]
10 | Fc1ccc(Nc2nc(Nc3ccc(F)cc3)nc(N3CCOCC3)n2)cc1 | 7.94 µM [falling, partial curve]
11 | CCCCn1c(SCC(=O)Nc2ccc(F)cc2)nc2c(sc3ccccc32)c1=O | 31.6 µM [rising, partial curve, poor fit]
12 | COc1ccc(C2C(CC(=O)O)=C(O)C(=O)N2c2ccccc2)cc1 (stereo unspecified) | 2 µM [falling, full curve]
13 | O=C(CSc1nnc(-c2ccc(Br)cc2)n1-c1ccccc1)c1ccccc1 | 0.398 µM [falling, partial curve, poor fit]
14 | CCOC(=O)C1CCN(C(=O)COc2cc(C)c(Br)c(C)c2)CC1 | 0.251 µM [falling, full curve]
15 | COc1ccc(NC(=O)C(=O)NCC2(c3ccccc3)CCCC2)c(OC)c1 | 25.1 µM [falling, single point]
16 | CC(=O)N1CCc2cc(Br)cc(S(=O)(=O)CCC(=O)Nc3ccc(C)cc3Cl)c21 | 25.1 µM [falling, partial curve, poor fit]
17 | CCc1c(C)c2ccc(O)c(CN3CCN(c4ccccc4)CC3)c2oc1=O | 6.31 µM [rising, partial curve]
18 | CCN1CCN(c2cc(C)c3cc(NC(=O)c4ccccc4F)ccc3n2)CC1 | 15.8 µM [falling, single point]
19 | CC(C)c1ccc2oc(=O)cc(CN3CCN(c4ccc(F)cc4)CC3)c2c1 | 15.8 µM [falling, partial curve]
20 | Cc1nn(Cc2ccccc2Cl)c(C)c1C(=O)N1CCN(c2ccccc2)CC1 | 31.6 µM [falling, partial curve]
21 | Cc1cncn1CCc1nc2c3ccccc3nc(SCC(=O)Nc3ccccc3F)n2n1 | 20 µM [rising, partial curve]

Another view of part of the listing above:

| Row | SMILES | AC50 |
| --- | --- | --- |
| 4 | CCc1ccccc1NC(=O)c1cc(-c2ccc3c(c2)OCO3)on1 | 6.31 µM [falling, partial curve] |
| 5 | Cc1ccc(C)c(-c2nc3ccc(N)cc3[nH]2)c1 | 12.6 µM [falling, partial curve] |
| 6 | O=c1c(-c2ccc(O)cc2)coc2cc(O)ccc12 | 39.8 nM [falling, full curve] [measured here: IkB-luc green channel] |
| 7 | Cc1ccc(O)c(C2=Nc3ccccc3N=C(c3cccc(F)c3)C2)c1 | 12.6 µM [falling, partial curve] |

Continuation:

Row | SMILES | AC50
22 | O=C(c1ccc(CS(=O)(=O)c2c(Cl)cccc2Cl)o1)N1CCN(c2ccccc2)CC1 | 25.1 µM [falling, partial curve]
23 | Cc1ccc(-n2c(SCC(N)=O)nc3c([nH]c4ccccc43)c2=O)cc1 | 1.58 µM [rising, full curve, poor fit]
24 | Cc1ccc(Nc2nc(N3CCOCC3)c3ccccc3n2)cc1 | 39.8 µM [falling, single point]
25 | COC(=O)c1sc(NC(=O)c2ccoc2C)nc1C | 15.8 µM [falling, partial curve]
26 | Cc1ccc(Cl)cc1N1CCN(c2ncnc3onc(-c4ccc(F)cc4)c23)CC1 | 31.6 µM [falling, single point]
27 | CCOC(=O)N1CCN(C(=O)CN(c2cc(C)ccc2OC)S(=O)(=O)c2ccc(C)cc2)CC1 | 10 µM [falling, partial curve]
28 | Cc1ccc(-c2nnc(Nc3cccc(C(F)(F)F)c3)c3ccccc23)cc1S(=O)(=O)N1CCOCC1 | 5.01 µM [falling, full curve]
29 | CC(C)(C)c1ccc(-c2noc(CCC(=O)Nc3cccc(Cl)c3)n2)cc1 | 3.16 µM [falling, full curve]
30 | Cc1ccc(S(=O)(=O)Cn2nnnc2CN2CCCC3(CCCCC3)C2)cc1 | 25.1 µM [falling, partial curve]
31 | CCOc1ccccc1CNC(=O)C1CCCN(S(=O)(=O)c2ccc3c(ccn3C)c2)C1 (stereo unspecified) | 31.6 µM [falling, single point]
32 | Cc1cccn2cc(CCNC(=O)c3ccc(Br)o3)nc12 | 15.8 µM [falling, partial curve]
33 | O=C(c1cc(-n2cnnc2)ccc1Cl)N1CCN(c2nc(-c3ccccc3)cs2)CC1 | 10 µM [falling, partial curve]
34 | COc1ccc(OC)c(S(=O)(=O)NCCc2csc3nc(-c4ccccc4)nn23)c1 | 31.6 µM [falling, single point]
35 | Cc1cccc(N2CCN(C(=O)c3ccc4c(c3)c(C)c(C)n4C)CC2C)c1 (stereo unspecified) | 3.16 µM [rising, partial curve] [measured here: IkB-luc green channel]
36 | CCc1ccc(CNC(=O)CN2C(=O)CCn3nc(-c4cn(C)c5ccccc45)cc32)cc1 | 10 µM [falling, partial curve]
37 | COc1ccccc1-c1nnc(SCC(=O)c2ccc(F)cc2)n1-c1ccccc1 | 31.6 µM [falling, single point]
38 | Cn1nnnc1SCCNCc1ccc(OCc2ccc(Cl)cc2)cc1 | 25.1 µM [falling, single point]
39 | O=C(Nc1cccc(Cl)c1)C1CCCN1S(=O)(=O)c1cccc2cccnc12 (stereo unspecified) | 20 µM [falling, partial curve]
40 | Cc1ccc(CN2C(=O)c3ccccc3Sc3ccc(C(=O)NCCCN4CCOCC4)cc32)cc1 | 5.01 µM [falling, partial curve]
41 | Cc1ccc2nc(Nc3ccc4[nH]c(=O)[nH]c4c3)c(-n3nc(C)cc3C)nc2c1 | 158 nM [falling, full curve] [measured here: IkB-luc green channel]
42 | O=C(COC(=O)C1c2ccccc2Oc2ccccc21)Nc1ccc2c(c1)OCO2 | 15.8 µM [falling, partial curve]

Row | SMILES | AC50
43 | Cc1oc(-c2cccc(Cl)c2)nc1CN1CCC(C(=O)NCCc2ccc(Cl)cc2)CC1 | 20 µM [falling, partial curve]
44 | CCC[C@@H]1O[C@@H]2C[C@@H]3[C@H]4CCC5=CC(=O)C=C[C@@]5(C)[C@H]4[C@H](O)C[C@@]3(C)[C@@]2(C(=O)CO)O1 | 501 nM [rising, full curve] [measured here: IkB-luc green channel]
45 | CCOc1ccc(-c2nnn(CCC(=O)O)n2)cc1OC | 20 µM [falling, partial curve]
46 | COc1ccc(C(=O)Nc2ccc(N3CCOCC3)c(C(F)(F)F)c2)cc1OC | 31.6 µM [falling, partial curve]
47 | CCc1cccc(NC(=O)C(CC(C)C)NS(=O)(=O)c2ccc3c(c2)oc(=O)n3C)c1 (stereo unspecified) | 12.6 µM [falling, partial curve]
48 | COc1ccccc1CN1CCC(CNC(=O)c2cnn(-c3ccc(C)c(C)c3)c2C2CCN(C(=O)OC(C)(C)C)CC2)CC1 | 10 µM [falling, partial curve, poor fit]
49 | COC(=O)C1=C(C)N(C)C(C)=C(C(=O)OC)C1c1ccc(C(=O)OC)cc1 | 15.8 µM [rising, partial curve] [measured here: IkB-luc green channel]
50 | COc1ccccc1NC(=O)c1cc(C2CC2)nc2c1c(C)nn2-c1ccc(C)cc1 | 6.31 µM [falling, partial curve]
51 | O=c1c(N2CCc3ccccc3C2)csc2ccc(Br)cc12 | 12.6 µM [falling, partial curve]
52 | COc1ccccc1Cc1nc2ccccc2nc1SCC(=O)N1CCC(C)CC1 | 31.6 µM [falling, single point]
53 | Cc1nc2c(ccc3nc(NC(=O)c4ccc(S(=O)(=O)N(C)C)cc4)sc32)s1 | 12.6 µM [falling, partial curve]
54 | Cc1ccc2nc(SCC(=O)Nc3ccc(C#N)cc3)[nH]c2c1 | 25.1 µM [falling, single point]
55 | Cc1c(C(=O)N2CCC(C)CC2)c(S(=O)(=O)N2CCN(c3cccc(Cl)c3)CC2)c(C)n1C | 31.6 µM [falling, partial curve]
56 | COc1ccc(S(=O)(=O)c2cn(Cc3ccccc3)c3cc(F)c(F)cc3c2=O)cc1 | 25.1 µM [falling, single point]
57 | CCOc1ccc(C(=O)NCc2ccc3c(c2)CCN3C(=O)c2ccc(C)cc2)cc1OCC | 6.31 µM [rising, partial curve]
58 | COc1ccccc1NC(=O)c1cc(S(=O)(=O)N2CCc3ccccc32)ccc1F | 12.6 µM [falling, partial curve]
59 | COC(=O)c1cccc(-n2nnnc2SCC(=O)Nc2nc3c(s2)CCCC3)c1 | 20 µM [falling, partial curve]
60 | C=Cc1ccc(Cn2c(=O)cc(C)c3c(C)nn(C)c32)cc1 | 0.0794 µM [rising, full curve, poor fit]
61 | Cc1ccccc1NS(=O)(=O)c1ccc(OCC(=O)NCc2ccco2)cc1 | 10 µM [falling, partial curve]
